Assay results as given in patent US8962558B2, “Methods for reducing GnRH-positive tumor cell proliferation using the GnRH antagonist IN3” (priority 1997, dated 2015).
At least one compound was matched to its structure with a doubt left. Square brackets hold non-standard residues; d marks the D form. Peptide text beside a SMILES is read from it. * marks the point of attachment. Tyr(3-I) = N[C@@H](Cc1ccc(O)c(I)c1)C(=O)O; pGlu = O=C1CC[C@@H](C(=O)O)N1; azaGly = NNC(=O)O; tBu = CC(C)(C)*

What was measured:
[1] = system: human glioblastoma cell lines U-87MG or U-373MG, Kaposi sarcoma cell lines KSY-1 or KS-SLK, malignant melanoma cell line MV3 or BLM, medulloblastoma cell line …; test: Proliferation assay on cell cultures (Example 3); type: cell-based; settings: cell lines of Example 3 treated with the substance
Experimental: A human cell line, such as the well known human glioblastoma cell lines U-87MG or U-373MG (Pinski et al., supra), or a human cell line such as the well known Kaposi sarcoma cell lines KSY-1 or KS-SLK (Parkash et al., 1996, New England Journal of Medicine, 335, 17, 1261-1269), or a human cell line such as the well known human malignant melanoma cell line MV3 or BLM (Goldbrunner, R. H., et al., 1996, Anticancer Research 16 (6B), 3679-87), or a human medulloblastoma cell line such as the well known cell line Daoy or D283 MED (Stockhammer et al., 1995, J. Neurosurgery, 83, 672-681), or human meningeoma cell cultures (Boyle-Wash, E., et al., 1995, Journal of Endocrinology, 145, 155-161), are cultured as previously described for the above-mentioned cell lines and then treated with a concentration of the GnRH agonist Triptorelin®, GnRH antagonist SB-75 (Cetrorelix®) or GnRH antagonist Ramorelix®. […]

[2] = system: small cell lung carcinoma cell lines NCI-H1688, NCI-H1417, NCI-H1672, NCI-H1836, DMS-79, DM-553, DMS-114, SW-1271, NCI-H2227, NCI-HI1963, SHP-77 and H-69 AR; test: Proliferation assay on small cell lung carcinoma cell lines (Example 3); type: cell-based, human; settings: small cell lung carcinoma cell lines treated with the substance
Experimental: In another embodiment, the small cell lung carcinoma cell lines NCI-H1688, NCI-H1417, NCI-H1672, NCI-H1836, DMS-79, DM-553, DMS-114, SW-1271, NCI-H2227, NCI-HI1963 and SHP-77 in addition to the multidrug-resistant small cell lung carcinoma cell line H-69 AR, are cultured as described above and then treated as described by Emons, G., et al., 1993, supra, and Irmer, G., 1995, supra, with various concentrations of the GnRH agonists (D-Lys6)-GnRH, Lutrelin, Histrelin, Nafarelin, Azagly-Nafarelin, Deslorelin, Cystorelin, Decapeptyl, Gonadorelin, GnRH, D-Lys(6)-GnRH II, Lamprey GnRH II, (D-Lys6)-Lamprey GnRH, (D-Lys6)-Lamprey GnRH II and Lamprey GnRH III. […]

[3] = system: U-87MG cells; test: Apoptotic events by TMRM mitochondrial membrane potential cytofluorometry; type: cell-based, human; settings: 72 hours, ± SE
[4] = molecular target: T1, LHRH receptors in BLM melanoma cells (Homo sapiens, UniProt P30968); test: 125I-LHRH-A binding to BLM cell membranes; settings: displacement curves, read-out: Dissociation constant
T1 construct: endogenous in cells; host or cells: BLM human melanoma cells (membranes)
T1 sequence (P30968 1-328): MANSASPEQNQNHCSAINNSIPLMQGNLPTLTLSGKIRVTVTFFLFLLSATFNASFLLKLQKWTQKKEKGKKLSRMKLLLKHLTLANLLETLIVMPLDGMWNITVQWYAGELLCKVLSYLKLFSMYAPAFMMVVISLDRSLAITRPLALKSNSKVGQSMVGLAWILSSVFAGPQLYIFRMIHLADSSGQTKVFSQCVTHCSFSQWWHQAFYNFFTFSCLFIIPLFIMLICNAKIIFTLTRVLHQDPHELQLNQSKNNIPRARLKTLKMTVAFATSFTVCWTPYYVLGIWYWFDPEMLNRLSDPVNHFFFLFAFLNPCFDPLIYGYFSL
Experimental: (§1) GnRH receptors in melanoma cells have been analyzed also in terms of binding parameters.
(§2) Binding characteristics were evaluated from displacement curves as described in Materials and Methods.

[5] = molecular target: T2, LHRH receptors in Me15392 melanoma cells (Homo sapiens, UniProt P30968); test: 125I-LHRH-A binding to Me15392 cell membranes; settings: displacement curves, read-out: Dissociation constant
T2 construct: endogenous in cells; host or cells: Me15392 human melanoma cells (membranes)
T2 sequence (P30968 1-328): T1 sequence (P30968 1-328)
Experimental: as §1, §2

[6] = molecular target: T3, LHRH receptors in rat pituitaries (Rattus norvegicus, UniProt P30969); test: 125I-LHRH-A binding to rat pituitaries (control); settings: displacement curves, read-out: Dissociation constant
T3 construct: from tissue; host or cells: rat pituitary
T3 sequence (P30969 1-327): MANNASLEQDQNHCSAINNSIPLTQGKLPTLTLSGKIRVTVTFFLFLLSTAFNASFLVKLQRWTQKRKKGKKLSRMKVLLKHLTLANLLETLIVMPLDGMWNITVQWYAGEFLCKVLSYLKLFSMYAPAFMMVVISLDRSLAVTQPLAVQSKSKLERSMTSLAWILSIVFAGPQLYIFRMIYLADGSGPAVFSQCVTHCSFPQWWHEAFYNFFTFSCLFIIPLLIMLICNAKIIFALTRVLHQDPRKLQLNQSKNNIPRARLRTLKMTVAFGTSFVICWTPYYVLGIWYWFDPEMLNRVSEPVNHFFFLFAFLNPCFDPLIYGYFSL
Experimental: as §1, §2

[7] = system: melanoma; settings: in vivo; cited from earlier work

With `CC(C)C[C@H](NC(=O)[C@@H](Cc1ccc2ccccc2c1)NC(=O)[C@H](Cc1ccc(O)cc1)NC(=O)[C@H](CO)NC(=O)[C@H](Cc1c[nH]c2ccccc12)NC(=O)[C@H](Cc1c[nH]cn1)NC(=O)[C@@H]1CCC(=O)N1)C(=O)N[C@@H](CCCNC(=N)N)C(=O)N1CCC[C@H]1C(=O)NCC(N)=O` [Nafarelin] the “anti-proliferative effects in tumor cells” value [1] was “Significant anti-proliferative effects”, the “anti-proliferative effects in tumor cells” value [2] was “Significant anti-proliferative effects” and the apoptosis events ([3]; 10^−3 M) was 24.71 ± 0.3111%. For the same compound, the apoptosis events ([3]; 10^−5 M) was 17.885 ± 1.223% and the apoptosis events ([3]; 10^−6 M) was 11.66 ± 0.5374%.

For `CC(C)C[C@H](NC(=O)[C@@H](COC(C)(C)C)NC(=O)[C@H](Cc1ccc(O)c(I)c1)NC(=O)[C@H](CO)NC(=O)[C@H](Cc1c[nH]c2ccccc12)NC(=O)[C@H](Cc1c[nH]cn1)NC(=O)[C@@H]1CCC(=O)N1)C(=O)N[C@@H](CCCNC(=N)N)C(=O)N1CCC[C@H]1C(=O)NNC(N)=O` [^125I-LHRH-A] ([pGlu]HWS[Tyr(3-I)][dS](tBu)LRP[azaGly]-NH2; C-terminus assumed), the Kd [4] was 0.7 to 1.1 nM, the Kd [5] was 0.1 to 0.6 nM and the Kd [6] was 1.5 to 2 nM.

For `CN(C)/N=N/c1[nH]cnc1C(N)=O` [dacarbazine], the “effect of standard melanoma chemotherapy” value [7] is given as 10%.
